Reference: PubChem BioAssay AID485314 (National Center for Advancing Translational Sciences (NCATS), 2010)
The campaign covered roughly 340,000 compounds. About 4,500 (1.3%) were called active. Inconclusive means that the source gave no clear call. Such entries were picked first, then a sample of the others. Calls come from the whole dose curve; as a rule, active = well fitted inhibition curve with a large enough effect; inconclusive = small, poorly fitted or top-dose-only effect, or another doubt; inactive = no such curve, though single readings can be large or run the other way. Potencies beside an inconclusive call are fits to weak or partial responses and may not hold up.

Target: DNA polymerase beta (Homo sapiens) (UniProt P06746)
Assay: qHTS Assay for Inhibitors of DNA Polymerase Beta
Settings: Pol beta primer extension/strand displacement, fluorescence kinetic; series mostly up to 114 µM
Summary of the method: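 10 nM enzyme + cpd, 15 min RT; start with substrate 50 nM final; read 0 min and after 10 min RT. Corrected, normalized data; 4-parameter Hill curve fit.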
Potency is the fitted concentration of half-maximal effect.

Compound	Potency
Nc1nonc1C(=O)N/N=C/c1ccc([N+](=O)[O-])o1	inconclusive: 10 µM [inhibitor, full curve]
CCOC(=O)c1[nH]c2ccc(OC)cc2c1C(SCC(=O)O)c1ccc(C(F)(F)F)cc1 (stereo unspecified)	inconclusive: 100 µM [inhibitor, partial curve]
CCCCC(C)C(OC(=O)CC(CC(=O)O)C(=O)O)C(CC(C)CC(O)CCCCC(O)CC(O)C(C)N)OC(=O)CC(CC(=O)O)C(=O)O (stereo unspecified)	inconclusive: 25.1 µM [inhibitor, full curve]
CSc1ncc(CN2CCCC(C(=O)c3cccc(Cl)c3)C2)cn1 (stereo unspecified)	inconclusive: 22.4 µM [inhibitor, single point]
CC(C)(C)N(NC(=O)c1ccccc1)C(=O)c1ccccc1	inconclusive: 89.1 µM [inhibitor, single point]
CN1CCC(N(C)c2ncnc3ccc(Br)cc23)CC1	inconclusive: 0.355 µM [inhibitor, partial curve, poor fit]
COc1ccc(-c2cc(=NCCCCCC(=O)O)c3cc(C)ccc3o2)cc1	inconclusive: 15.8 µM [inhibitor, partial curve, poor fit]
CN(Cc1ccccc1)C(=O)Cn1c(=O)oc2cc(S(=O)(=O)NCc3ccccc3)ccc21	inconclusive: 100 µM [inhibitor, partial curve, poor fit]
CN1CC=C(c2c[nH]c3ccccc23)CC1	inconclusive: 1.78 µM [inhibitor, full curve]
Cc1ccc(N2C(=O)NC(=O)/C(=C\c3cc(C)n(-c4sc5c(c4C#N)CCCC5)c3C)C2=O)cc1	inconclusive: 20 µM [inhibitor, single point]
O=C1NC(=O)C(=Cc2ccc(Oc3ccc([N+](=O)[O-])cc3)cc2)C(=O)N1	inconclusive: 89.1 µM [inhibitor, single point]
C=C(C)CN1CC[C@]23c4c5ccc(O)c4O[C@H]2c2[nH]c4ccccc4c2C[C@@]3(O)C1C5	inconclusive: 50.1 µM [inhibitor, single point]
O=[N+]([O-])c1cccc(CN2CCN(Cc3ccc(Cl)cc3)CC2)c1	inconclusive: 70.8 µM [inhibitor, single point]
O=C1NC(=O)C(=Cc2ccsc2)C(=O)N1	inconclusive: 0.794 µM [inhibitor, full curve]
CCCN1CCC(NC2CCC(O)CC2)CC1 (stereo unspecified)	inactive
CC1CCN2c3nc4ccccn4c(=O)c3CC3(C(=O)N(C)C(=O)N(C)C3=O)C2C1 (stereo unspecified)	inconclusive: 79.4 µM [inhibitor, single point]

Part of the list above, with bars between the fields:
Compound | Potency
CCCN1CCC(NC2CCC(O)CC2)CC1 (stereo unspecified) | inactive
CC1CCN2c3nc4ccccn4c(=O)c3CC3(C(=O)N(C)C(=O)N(C)C3=O)C2C1 (stereo unspecified) | inconclusive: 79.4 µM [inhibitor, single point]
